Experimental data: patent US20050118638A1
These are yes or no findings as the source states them, for the method shown. Some results given as binding are weak or reduced against the parent protein; the word gives no strength.

Sequences of proteins named here, by UniProt entry; tags and fusion partners are left off. Residues count along the entry.
UniProt P16473, residues 21-764: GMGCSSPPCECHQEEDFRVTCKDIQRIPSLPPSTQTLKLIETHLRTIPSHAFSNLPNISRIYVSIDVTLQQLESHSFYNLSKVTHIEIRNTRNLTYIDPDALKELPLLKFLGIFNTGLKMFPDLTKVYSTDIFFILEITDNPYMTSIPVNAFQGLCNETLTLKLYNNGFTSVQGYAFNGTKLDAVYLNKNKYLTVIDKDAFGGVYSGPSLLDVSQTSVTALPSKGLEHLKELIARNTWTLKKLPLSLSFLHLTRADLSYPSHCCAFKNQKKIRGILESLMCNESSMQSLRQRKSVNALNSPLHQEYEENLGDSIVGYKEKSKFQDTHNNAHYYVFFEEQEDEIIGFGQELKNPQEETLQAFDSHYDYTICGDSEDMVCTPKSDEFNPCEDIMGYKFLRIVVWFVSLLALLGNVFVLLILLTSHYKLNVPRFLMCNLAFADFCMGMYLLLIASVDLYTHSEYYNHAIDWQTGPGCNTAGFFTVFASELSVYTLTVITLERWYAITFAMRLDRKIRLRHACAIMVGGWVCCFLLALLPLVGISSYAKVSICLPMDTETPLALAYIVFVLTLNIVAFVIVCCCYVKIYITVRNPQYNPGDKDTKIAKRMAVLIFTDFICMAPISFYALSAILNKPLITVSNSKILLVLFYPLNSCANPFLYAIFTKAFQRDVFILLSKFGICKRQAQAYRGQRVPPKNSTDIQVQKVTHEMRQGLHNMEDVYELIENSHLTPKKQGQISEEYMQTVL

Molecular target: TSH receptor (detergent solubilised TSH receptor preparation) (UniProt P16473)
Experiment: 125I-16E5 IgG on TSHR coated tubes

B1: 16E5 IgG (antibody, V domains shown, not shown: a dimerising Fc or GST)
VH: DVQLVQSGPELVKPGASVKMSCKASGYSFTGYNMHWVKQSHGKSLEWIGYIDPYNGATSYNQKFEDKATLTVDKSSSTAYMQLNSLTSEDSAVYYCARRWDWDPYAMDYWGQGTSVTVSS
VL: DILLTQSPAILSVSPGERVSFSCRASQSIGTSIHWYQQRTNGSPRLLIKYASESISGIFSRFSGSGSGTDFTLTINSVESEDIADYYCQQSNRWPLTFGAGTKLELKR
In the case of B1, the binding is reported as “binds”.
